# In the supplement of paper PMC8728848:
# The list shows a part of the results.
# Experiments:
# Experiment in all cases: glycan array binding signal (z-score within array); higher = stronger binding
# Settings in all cases: glycan notation: IUPAC condensed, linker removed
# [1] = biological target: Fuc(a1-2)[Gal(a1-3)]Gal(b1-4)GlcNAc(b1-2)Man(a1-3)[Fuc(a1-2)[Gal(a1-3)]Gal(b1-4)GlcNAc(b1-2)Man(a1-6)]Man(b1-4)GlcNAc(b1-4)GlcNAc
# Outline: (§1)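 Glycan array data were curated from 3228 arrays in the Consortium for Functional Glycomics database and kept only where the protein sequence was available. Glycan names were converted to IUPAC-condensed notation, and columns mapping to the same glycan were averaged. The binding signal is a within-array Z-score, averaged across arrays of the same protein sequence at different concentrations or buffers and across linkers. Negative Z-scores can be read as non-binding.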
# [2] = biological target: Fuc(a1-2)[Gal(a1-3)]Gal(b1-4)GlcNAc(b1-2)Man(a1-3)[Fuc(a1-2)[Gal(a1-3)]Gal(b1-4)GlcNAc(b1-2)Man(a1-6)]Man(b1-4)GlcNAc(b1-4)[Fuc(a1-6)]GlcNAc
# Outline: as §1
# [3] = biological target: Fuc(a1-2)[Gal(a1-3)]Gal(b1-4)GlcNAc(b1-3)GalNAc
# Outline: as §1
# [4] = biological target: Fuc(a1-2)[Gal(a1-3)]Gal(b1-4)GlcNAc(b1-3)[Fuc(a1-2)[Gal(a1-3)]Gal(b1-4)GlcNAc(b1-6)]GalNAc
# Outline: as §1
# [5] = biological target: Fuc(a1-2)[Gal(a1-3)]Gal(b1-4)GlcNAc(b1-6)GalNAc
# Outline: as §1
# [6] = biological target: Fuc(a1-2)[Gal(a1-3)]Gal(b1-4)[Fuc(a1-3)]Glc
# Outline: as §1
# [7] = biological target: Fuc(a1-2)[Gal(a1-3)]Gal(b1-4)[Fuc(a1-3)]GlcNAc
# Outline: as §1
# [8] = biological target: Fuc(a1-2)[Gal(a1-3)]Gal(b1-4)[Fuc(a1-3)]GlcNAc(b1-3)GalNAc
# Outline: as §1
# [9] = biological target: Fuc(a1-2)[Gal(a1-4)]Gal(b1-4)GlcNAc
# Outline: as §1
# [10] = biological target: Fuc(a1-2)[GalNAc(a1-3)]Gal
# Outline: as §1
# [11] = biological target: Fuc(a1-2)[GalNAc(a1-3)]Gal(b1-3)GalNAc(a1-3)[Fuc(a1-2)]Gal(b1-4)GlcNAc
# Outline: as §1
# [12] = biological target: Fuc(a1-2)[GalNAc(a1-3)]Gal(b1-3)GalNAc(b1-3)Gal(a1-4)Gal(b1-4)Glc
# Outline: as §1
# [13] = biological target: Fuc(a1-2)[GalNAc(a1-3)]Gal(b1-3)GlcNAc
# Outline: as §1
# [14] = biological target: Fuc(a1-2)[GalNAc(a1-3)]Gal(b1-3)GlcNAc(b1-2)Man(a1-3)[Fuc(a1-2)[GalNAc(a1-3)]Gal(b1-3)GlcNAc(b1-2)Man(a1-6)]Man(b1-4)GlcNAc(b1-4)GlcNAc
# Outline: as §1
# [15] = biological target: Fuc(a1-2)[GalNAc(a1-3)]Gal(b1-3)GlcNAc(b1-2)Man(a1-3)[Fuc(a1-2)[GalNAc(a1-3)]Gal(b1-3)GlcNAc(b1-2)Man(a1-6)]Man(b1-4)GlcNAc(b1-4)[Fuc(a1-6)]GlcNAc
# Outline: as §1
# [16] = biological target: Fuc(a1-2)[GalNAc(a1-3)]Gal(b1-3)GlcNAc(b1-3)GalNAc
# Outline: as §1
# [17] = biological target: Fuc(a1-2)[GalNAc(a1-3)]Gal(b1-3)GlcNAc(b1-6)GalNAc
# Outline: as §1
# [18] = biological target: Fuc(a1-2)[GalNAc(a1-3)]Gal(b1-4)Glc
# Outline: as §1
# [19] = biological target: Fuc(a1-2)[GalNAc(a1-3)]Gal(b1-4)GlcNAc
# Outline: as §1
# [20] = biological target: Fuc(a1-2)[GalNAc(a1-3)]Gal(b1-4)GlcNAc(b1-2)Man
# Outline: as §1
# [21] = biological target: Fuc(a1-2)[GalNAc(a1-3)]Gal(b1-4)GlcNAc(b1-2)Man(a1-3)[Fuc(a1-2)[GalNAc(a1-3)]Gal(b1-4)GlcNAc(b1-2)Man(a1-6)]Man(b1-4)GlcNAc(b1-4)GlcNAc
# Outline: as §1
# [22] = biological target: Fuc(a1-2)[GalNAc(a1-3)]Gal(b1-4)GlcNAc(b1-2)Man(a1-3)[Fuc(a1-2)[GalNAc(a1-3)]Gal(b1-4)GlcNAc(b1-2)Man(a1-6)]Man(b1-4)GlcNAc(b1-4)[Fuc(a1-6)]GlcNAc
# Outline: as §1
# [23] = biological target: Fuc(a1-2)[GalNAc(a1-3)]Gal(b1-4)GlcNAc(b1-3)Gal(b1-4)GlcNAc
# Outline: as §1
# [24] = biological target: Fuc(a1-2)[GalNAc(a1-3)]Gal(b1-4)GlcNAc(b1-3)Gal(b1-4)GlcNAc(b1-3)Gal(b1-4)GlcNAc
# Outline: as §1
# [25] = biological target: Fuc(a1-2)[GalNAc(a1-3)]Gal(b1-4)GlcNAc(b1-3)GalNAc
# Outline: as §1
# [26] = biological target: Fuc(a1-2)[GalNAc(a1-3)]Gal(b1-4)GlcNAc(b1-3)[Fuc(a1-2)[GalNAc(a1-3)]Gal(b1-4)GlcNAc(b1-6)]GalNAc
# Outline: as §1
# [27] = biological target: Fuc(a1-2)[GalNAc(a1-3)]Gal(b1-4)GlcNAc(b1-6)GalNAc
# Outline: as §1
# [28] = biological target: Fuc(a1-2)[GalNAc(a1-3)]Gal(b1-4)[Fuc(a1-3)]GlcNAc
# Outline: as §1
# [29] = biological target: Fuc(a1-2)[GalNAc(a1-3)]Gal(b1-4)[Fuc(a1-3)]GlcNAc(b1-3)GalNAc
# Outline: as §1
# [30] = biological target: Fuc(a1-2)[GalNAc(a1-4)]Gal(b1-4)GlcNAc
# Outline: as §1
# [31] = biological target: Fuc(a1-2)[GalNAc(b1-3)]Gal
# Outline: as §1
# Fuc(a1-3)GlcNAc = biological target: Fuc(a1-3)GlcNAc
# Outline: as §1
# [32] = biological target: Fuc(a1-3)[Gal(b1-4)]Glc6S
# Outline: as §1
# [33] = biological target: Fuc(a1-3)[Gal(b1-4)]GlcNAc
# Outline: as §1
# [34] = biological target: Fuc(a1-3)[Gal(b1-4)]GlcNAc(b1-2)Man
# Outline: as §1
# [35] = biological target: Fuc(a1-3)[Gal(b1-4)]GlcNAc(b1-2)Man(a1-3)[Fuc(a1-3)[Gal(b1-4)]GlcNAc(b1-2)Man(a1-6)]Man(b1-4)GlcNAc(b1-4)GlcNAc
# Outline: as §1
# [36] = biological target: Fuc(a1-3)[Gal(b1-4)]GlcNAc(b1-2)Man(a1-3)[Fuc(a1-3)[Gal(b1-4)]GlcNAc(b1-2)Man(a1-6)]Man(b1-4)GlcNAc(b1-4)[Fuc(a1-6)]GlcNAc
# Outline: as §1
# [37] = biological target: Fuc(a1-3)[Gal(b1-4)]GlcNAc(b1-3)Gal(b1-3)[Fuc(a1-4)]GlcNAc
# Outline: as §1
# [38] = biological target: Fuc(a1-3)[Gal(b1-4)]GlcNAc(b1-3)Gal(b1-4)[Fuc(a1-3)]GlcNAc
# Outline: as §1
# [39] = biological target: Fuc(a1-3)[Gal(b1-4)]GlcNAc(b1-3)Gal(b1-4)[Fuc(a1-3)]GlcNAc(b1-3)Gal(b1-4)[Fuc(a1-3)]GlcNAc
# Outline: as §1
# [40] = biological target: Fuc(a1-3)[Gal(b1-4)]GlcNAc(b1-3)GalNAc
# Outline: as §1
# [41] = biological target: Fuc(a1-3)[Gal(b1-4)]GlcNAc(b1-6)GalNAc
# Outline: as §1
# [42] = biological target: Fuc(a1-3)[Gal(b1-4)]GlcNAc(b1-6)[Gal(b1-3)GlcNAc(b1-3)]Gal(b1-4)Glc
# Outline: as §1
# [43] = biological target: Fuc(a1-3)[Gal(b1-4)]GlcNAc6S
# Outline: as §1
# [44] = biological target: Fuc(a1-3)[Gal3S(b1-4)]Glc
# Outline: as §1
# [45] = biological target: Fuc(a1-3)[Gal3S(b1-4)]GlcNAc
# Outline: as §1
# [46] = biological target: Fuc(a1-3)[Gal3S(b1-4)]GlcNAc6S
# Outline: as §1
# [47] = biological target: Fuc(a1-3)[GalNAc(b1-4)]GlcNAc
# Outline: as §1
# [48] = biological target: Fuc(a1-3)[GalNAc(b1-4)]GlcNAc6S
# Outline: as §1
# Fuc(a1-4)GlcNAc = biological target: Fuc(a1-4)GlcNAc
# Outline: as §1
# Fuc(b1-3)GlcNAc = biological target: Fuc(b1-3)GlcNAc
# Outline: as §1
# Gal(a1-2)Gal = biological target: Gal(a1-2)Gal
# Outline: as §1
# Gal(a1-3)Gal = biological target: Gal(a1-3)Gal
# Outline: as §1
# Gal(a1-3)Gal(b1-3)GlcNAc = biological target: Gal(a1-3)Gal(b1-3)GlcNAc
# Outline: as §1
# [49] = biological target: Gal(a1-3)Gal(b1-3)GlcNAc(b1-2)Man
# Outline: as §1
# [50] = biological target: Gal(a1-3)Gal(b1-3)GlcNAc(b1-2)Man(a1-3)[Gal(a1-3)Gal(b1-3)GlcNAc(b1-2)Man(a1-6)]Man(b1-4)GlcNAc(b1-4)GlcNAc
# Outline: as §1
# [51] = biological target: Gal(a1-3)Gal(b1-3)GlcNAc(b1-3)GalNAc
# Outline: as §1
# [52] = biological target: Gal(a1-3)Gal(b1-3)GlcNAc(b1-6)GalNAc
# Outline: as §1
# [53] = biological target: Gal(a1-3)Gal(b1-3)[Fuc(a1-4)]GlcNAc(b1-2)Man(a1-3)[Gal(a1-3)Gal(b1-3)[Fuc(a1-4)]GlcNAc(b1-2)Man(a1-6)]Man(b1-4)GlcNAc(b1-4)GlcNAc
# Outline: as §1
# Gal(a1-3)Gal(b1-4)Glc = biological target: Gal(a1-3)Gal(b1-4)Glc
# Outline: as §1
binder,measurement,setting,value
"pTFF2 (Sus scrofa), P01359 (protein) KPAACRCSRQDPKNRVNCGFPGITSDQCFTSGCCFDSQVPGVPWCFKPLPAQESEECVMEVSARKNCGYPGISPEDCAARNCCFSDTIPEVPWCFFPMSVEACHY",glycan array binding signal (z-score),[1],1.79
same,glycan array binding signal (z-score),[2],-0.545
same,glycan array binding signal (z-score),[3],0.594
same,glycan array binding signal (z-score),[4],0.188
same,glycan array binding signal (z-score),[5],-0.303
same,glycan array binding signal (z-score),[6],-0.571
same,glycan array binding signal (z-score),[7],0.53
same,glycan array binding signal (z-score),[8],-2.12
same,glycan array binding signal (z-score),[9],-0.413
same,glycan array binding signal (z-score),[10],0.408
same,glycan array binding signal (z-score),[11],-0.618
same,glycan array binding signal (z-score),[12],0.098
same,glycan array binding signal (z-score),[13],-0.316
same,glycan array binding signal (z-score),[14],-1.06
same,glycan array binding signal (z-score),[15],0.833
same,glycan array binding signal (z-score),[16],0.556
same,glycan array binding signal (z-score),[17],-1.19
same,glycan array binding signal (z-score),[18],0.343
same,glycan array binding signal (z-score),[19],-0.76
same,glycan array binding signal (z-score),[20],0.535
same,glycan array binding signal (z-score),[21],-0.199
same,glycan array binding signal (z-score),[22],0.517
same,glycan array binding signal (z-score),[23],0.229
same,glycan array binding signal (z-score),[24],-0.048
same,glycan array binding signal (z-score),[25],1.82
same,glycan array binding signal (z-score),[26],-0.453
same,glycan array binding signal (z-score),[27],-0.647
same,glycan array binding signal (z-score),[28],-0.904
same,glycan array binding signal (z-score),[29],-0.55
same,glycan array binding signal (z-score),[30],0.188
same,glycan array binding signal (z-score),[31],0.984
same,glycan array binding signal (z-score),Fuc(a1-3)GlcNAc,-0.529
same,glycan array binding signal (z-score),[32],0.468
same,glycan array binding signal (z-score),[33],0.266
same,glycan array binding signal (z-score),[34],-0.483
same,glycan array binding signal (z-score),[35],1.37
same,glycan array binding signal (z-score),[36],-0.109
same,glycan array binding signal (z-score),[37],-0.004
same,glycan array binding signal (z-score),[38],0.225
same,glycan array binding signal (z-score),[39],0.381
same,glycan array binding signal (z-score),[40],-0.276
same,glycan array binding signal (z-score),[41],-0.248
same,glycan array binding signal (z-score),[42],-0.161
same,glycan array binding signal (z-score),[43],0.435
same,glycan array binding signal (z-score),[44],-0.916
same,glycan array binding signal (z-score),[45],0.671
same,glycan array binding signal (z-score),[46],-0.432
same,glycan array binding signal (z-score),[47],1.16
same,glycan array binding signal (z-score),[48],-0.98
same,glycan array binding signal (z-score),Fuc(a1-4)GlcNAc,-0.026
same,glycan array binding signal (z-score),Fuc(b1-3)GlcNAc,0.781
same,glycan array binding signal (z-score),Gal(a1-2)Gal,-0.358
same,glycan array binding signal (z-score),Gal(a1-3)Gal,-0.276
same,glycan array binding signal (z-score),Gal(a1-3)Gal(b1-3)GlcNAc,-0.431
same,glycan array binding signal (z-score),[49],-1.06
same,glycan array binding signal (z-score),[50],-0.447
same,glycan array binding signal (z-score),[51],1.68
same,glycan array binding signal (z-score),[52],0.622
same,glycan array binding signal (z-score),[53],-0.386
same,glycan array binding signal (z-score),Gal(a1-3)Gal(b1-4)Glc,-0.4

# Part of the list above, with bars between the fields.
binder | measurement | setting | value
pTFF2 (Sus scrofa), P01359 (protein) KPAACRCSRQDPKNRVNCGFPGITSDQCFTSGCCFDSQVPGVPWCFKPLPAQESEECVMEVSARKNCGYPGISPEDCAARNCCFSDTIPEVPWCFFPMSVEACHY | glycan array binding signal (z-score) | [16] | 0.556
same | glycan array binding signal (z-score) | [25] | 1.82
same | glycan array binding signal (z-score) | [51] | 1.68
